In patent US7794835B2, “Fixing solution, capsule structure, fixing method, fixing device and image forming apparatus” (Ricoh Company, Ltd., priority 2004, dated 2010):

Assay: odor index by Triangle Odor Bag Method for Odor Sensory Measurement
Parameters: species or system humans
Conditions: for odor index of the softener: softener (solute) alone; for odor index of the solution: solvent part of the fixing solution

Molecule	odor index of the softener	odor index of the solution	other results
CCCCOC(=O)CCCCCCCCC(=O)OCCCC [dibutylsebacate]	3	–	–
CCOCCOC(=O)CCC(=O)OCCOCC [diethoxy ethyl succinate]	1	–	–
CC(C)COC(=O)CCCCC(=O)OCC(C)C [diisobutyladipate]	1	–	odor index of the softener (listed as isobutyladipate): 3
CCCCCCCCCCCC(=O)OCC [ethyl laureate]	13	–	odor index of the softener (listed as ethyllaurate): 3
CCCCCCCCCCCC(=O)OCCCCCC [hexyl laureate]	1	–	–
CCCCCCCCCCCCCC(=O)OC(C)C [isopropylmyristate]	0	–	–
CCCCCCCC(=O)OC [methylcaprylate, reference compound]	13	–	–
CCCCCC [n-hexane]	–	0	–
O [water]	–	0	–
dimethylsiloxane	–	0	–
